Measurements: the supplement of paper PMC10849652
The list shows a part of the results.

The chains behind the UniProt entries cited, without tags or fusion partners. Where a name states a change or a piece, a line headed by the entry shows the natural chain unless it says otherwise.
UniProt Q9HCN3: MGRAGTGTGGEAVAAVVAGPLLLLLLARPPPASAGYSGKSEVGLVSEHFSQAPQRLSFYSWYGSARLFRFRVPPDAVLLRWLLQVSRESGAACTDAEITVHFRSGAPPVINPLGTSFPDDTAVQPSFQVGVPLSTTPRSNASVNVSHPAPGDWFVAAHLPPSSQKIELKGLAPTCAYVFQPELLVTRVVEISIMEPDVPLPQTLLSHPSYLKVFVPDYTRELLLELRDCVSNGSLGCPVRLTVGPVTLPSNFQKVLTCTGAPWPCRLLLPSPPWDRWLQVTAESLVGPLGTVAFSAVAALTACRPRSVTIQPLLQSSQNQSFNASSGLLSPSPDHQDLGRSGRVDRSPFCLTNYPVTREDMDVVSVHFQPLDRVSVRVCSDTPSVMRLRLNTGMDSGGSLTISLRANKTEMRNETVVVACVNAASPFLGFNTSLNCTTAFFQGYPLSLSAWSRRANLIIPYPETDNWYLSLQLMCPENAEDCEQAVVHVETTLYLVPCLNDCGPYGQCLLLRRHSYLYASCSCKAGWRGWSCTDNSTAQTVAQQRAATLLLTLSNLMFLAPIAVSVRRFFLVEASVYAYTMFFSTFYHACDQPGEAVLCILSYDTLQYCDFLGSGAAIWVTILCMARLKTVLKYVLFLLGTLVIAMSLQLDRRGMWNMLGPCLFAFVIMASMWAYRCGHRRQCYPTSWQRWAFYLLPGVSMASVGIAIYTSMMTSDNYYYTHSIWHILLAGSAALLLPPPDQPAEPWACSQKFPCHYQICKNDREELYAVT
UniProt Q9NVA4: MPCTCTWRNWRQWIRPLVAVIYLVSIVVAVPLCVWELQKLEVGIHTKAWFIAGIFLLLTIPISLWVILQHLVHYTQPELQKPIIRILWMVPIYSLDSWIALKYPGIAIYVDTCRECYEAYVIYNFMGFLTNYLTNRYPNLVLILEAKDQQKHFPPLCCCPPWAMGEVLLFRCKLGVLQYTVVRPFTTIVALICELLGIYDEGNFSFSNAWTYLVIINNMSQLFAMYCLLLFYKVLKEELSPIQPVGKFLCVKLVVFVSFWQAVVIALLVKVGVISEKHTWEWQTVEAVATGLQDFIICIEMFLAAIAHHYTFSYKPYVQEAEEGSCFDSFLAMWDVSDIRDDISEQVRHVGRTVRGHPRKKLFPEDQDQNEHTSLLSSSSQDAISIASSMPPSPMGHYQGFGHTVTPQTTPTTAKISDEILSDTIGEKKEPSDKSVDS
UniProt Q96AN5: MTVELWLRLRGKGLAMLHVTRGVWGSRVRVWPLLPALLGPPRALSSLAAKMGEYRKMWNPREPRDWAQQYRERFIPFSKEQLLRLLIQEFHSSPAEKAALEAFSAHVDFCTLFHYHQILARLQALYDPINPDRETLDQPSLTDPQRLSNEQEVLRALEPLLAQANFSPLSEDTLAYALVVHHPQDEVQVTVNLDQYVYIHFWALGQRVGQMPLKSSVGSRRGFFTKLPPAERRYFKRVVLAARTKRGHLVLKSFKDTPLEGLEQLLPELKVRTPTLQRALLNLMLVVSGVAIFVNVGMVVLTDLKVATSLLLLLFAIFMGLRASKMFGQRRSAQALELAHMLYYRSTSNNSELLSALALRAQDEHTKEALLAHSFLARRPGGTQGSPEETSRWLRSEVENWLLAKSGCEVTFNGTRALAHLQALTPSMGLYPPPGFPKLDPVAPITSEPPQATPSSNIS
UniProt Q9BSA9: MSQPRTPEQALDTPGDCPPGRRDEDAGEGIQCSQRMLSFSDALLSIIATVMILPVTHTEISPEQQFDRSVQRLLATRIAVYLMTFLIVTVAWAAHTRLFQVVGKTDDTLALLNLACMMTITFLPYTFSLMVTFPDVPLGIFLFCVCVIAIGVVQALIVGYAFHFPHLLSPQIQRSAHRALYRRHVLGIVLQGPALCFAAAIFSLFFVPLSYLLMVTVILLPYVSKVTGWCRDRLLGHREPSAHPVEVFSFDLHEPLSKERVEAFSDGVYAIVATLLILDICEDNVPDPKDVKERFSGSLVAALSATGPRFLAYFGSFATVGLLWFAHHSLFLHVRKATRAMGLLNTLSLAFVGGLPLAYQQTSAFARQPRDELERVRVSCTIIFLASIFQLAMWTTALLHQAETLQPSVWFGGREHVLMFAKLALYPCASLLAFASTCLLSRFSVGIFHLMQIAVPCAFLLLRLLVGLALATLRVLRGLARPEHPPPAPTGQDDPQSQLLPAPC
UniProt Q92545: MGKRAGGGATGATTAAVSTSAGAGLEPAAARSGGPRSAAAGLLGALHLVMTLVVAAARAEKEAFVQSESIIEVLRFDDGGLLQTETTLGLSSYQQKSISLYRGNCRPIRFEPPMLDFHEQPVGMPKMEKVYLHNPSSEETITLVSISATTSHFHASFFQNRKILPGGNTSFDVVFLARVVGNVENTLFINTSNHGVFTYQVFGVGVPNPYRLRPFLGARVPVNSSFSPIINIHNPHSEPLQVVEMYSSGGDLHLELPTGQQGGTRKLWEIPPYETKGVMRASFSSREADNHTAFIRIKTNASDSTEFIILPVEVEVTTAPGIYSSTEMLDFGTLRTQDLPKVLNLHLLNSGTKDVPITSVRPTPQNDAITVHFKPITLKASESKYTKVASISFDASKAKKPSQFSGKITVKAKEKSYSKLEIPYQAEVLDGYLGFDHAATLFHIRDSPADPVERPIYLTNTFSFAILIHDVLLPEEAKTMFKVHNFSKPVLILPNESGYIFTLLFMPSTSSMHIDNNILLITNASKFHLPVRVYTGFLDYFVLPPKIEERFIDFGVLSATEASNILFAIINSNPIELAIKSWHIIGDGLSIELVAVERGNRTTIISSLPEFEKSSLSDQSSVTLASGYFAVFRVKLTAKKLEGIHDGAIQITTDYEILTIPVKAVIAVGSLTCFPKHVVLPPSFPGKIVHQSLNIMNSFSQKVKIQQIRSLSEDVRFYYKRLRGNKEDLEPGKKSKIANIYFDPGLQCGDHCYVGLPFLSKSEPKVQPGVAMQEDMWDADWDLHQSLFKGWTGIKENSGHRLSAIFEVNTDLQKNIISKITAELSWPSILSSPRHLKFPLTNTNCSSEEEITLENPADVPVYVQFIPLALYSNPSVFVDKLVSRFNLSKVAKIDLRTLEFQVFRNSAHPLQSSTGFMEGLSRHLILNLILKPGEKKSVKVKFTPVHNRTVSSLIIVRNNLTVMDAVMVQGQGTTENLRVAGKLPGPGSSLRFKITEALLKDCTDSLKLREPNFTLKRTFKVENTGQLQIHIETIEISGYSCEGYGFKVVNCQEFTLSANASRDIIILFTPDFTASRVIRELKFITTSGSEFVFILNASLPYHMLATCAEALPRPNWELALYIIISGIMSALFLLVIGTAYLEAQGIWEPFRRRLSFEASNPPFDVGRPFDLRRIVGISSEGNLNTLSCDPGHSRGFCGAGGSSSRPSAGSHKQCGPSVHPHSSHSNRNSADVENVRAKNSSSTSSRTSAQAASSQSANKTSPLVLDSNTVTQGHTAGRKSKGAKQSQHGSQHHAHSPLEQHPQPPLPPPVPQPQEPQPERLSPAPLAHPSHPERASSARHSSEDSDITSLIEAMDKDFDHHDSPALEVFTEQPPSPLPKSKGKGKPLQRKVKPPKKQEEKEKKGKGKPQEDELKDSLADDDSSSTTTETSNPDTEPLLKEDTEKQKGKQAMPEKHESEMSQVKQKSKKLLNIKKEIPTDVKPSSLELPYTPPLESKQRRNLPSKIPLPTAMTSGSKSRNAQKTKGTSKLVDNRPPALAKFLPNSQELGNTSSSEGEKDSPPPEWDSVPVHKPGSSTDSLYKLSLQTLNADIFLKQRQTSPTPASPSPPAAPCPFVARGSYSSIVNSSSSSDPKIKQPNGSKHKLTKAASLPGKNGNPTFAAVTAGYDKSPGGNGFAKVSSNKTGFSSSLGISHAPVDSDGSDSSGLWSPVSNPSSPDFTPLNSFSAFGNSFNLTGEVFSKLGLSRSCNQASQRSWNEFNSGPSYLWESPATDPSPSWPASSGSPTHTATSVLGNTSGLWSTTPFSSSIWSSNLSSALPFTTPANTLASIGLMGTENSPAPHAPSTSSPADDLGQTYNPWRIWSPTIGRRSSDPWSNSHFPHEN
UniProt Q8NCS4: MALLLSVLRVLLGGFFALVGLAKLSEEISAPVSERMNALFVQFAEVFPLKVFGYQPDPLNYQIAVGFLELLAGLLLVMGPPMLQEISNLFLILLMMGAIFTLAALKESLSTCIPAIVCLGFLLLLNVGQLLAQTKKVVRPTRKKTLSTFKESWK
UniProt Q9NX78: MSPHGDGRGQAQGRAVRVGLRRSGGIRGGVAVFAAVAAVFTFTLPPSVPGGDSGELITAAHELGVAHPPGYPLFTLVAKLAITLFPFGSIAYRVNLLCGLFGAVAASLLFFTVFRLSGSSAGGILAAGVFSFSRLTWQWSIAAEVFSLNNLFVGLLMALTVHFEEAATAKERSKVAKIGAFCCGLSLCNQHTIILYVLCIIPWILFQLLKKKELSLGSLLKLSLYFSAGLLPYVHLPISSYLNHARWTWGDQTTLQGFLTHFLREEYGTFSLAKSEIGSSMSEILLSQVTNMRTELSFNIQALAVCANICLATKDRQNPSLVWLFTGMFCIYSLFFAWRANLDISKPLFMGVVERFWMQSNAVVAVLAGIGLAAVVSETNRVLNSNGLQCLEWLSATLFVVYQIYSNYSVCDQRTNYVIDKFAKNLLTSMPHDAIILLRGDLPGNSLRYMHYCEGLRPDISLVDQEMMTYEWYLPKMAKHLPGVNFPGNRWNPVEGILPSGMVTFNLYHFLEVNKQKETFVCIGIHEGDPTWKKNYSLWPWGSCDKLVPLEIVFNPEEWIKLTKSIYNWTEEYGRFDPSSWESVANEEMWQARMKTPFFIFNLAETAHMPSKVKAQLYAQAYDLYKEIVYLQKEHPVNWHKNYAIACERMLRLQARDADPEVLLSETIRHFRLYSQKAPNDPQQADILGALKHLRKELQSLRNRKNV
UniProt Q5SNT2: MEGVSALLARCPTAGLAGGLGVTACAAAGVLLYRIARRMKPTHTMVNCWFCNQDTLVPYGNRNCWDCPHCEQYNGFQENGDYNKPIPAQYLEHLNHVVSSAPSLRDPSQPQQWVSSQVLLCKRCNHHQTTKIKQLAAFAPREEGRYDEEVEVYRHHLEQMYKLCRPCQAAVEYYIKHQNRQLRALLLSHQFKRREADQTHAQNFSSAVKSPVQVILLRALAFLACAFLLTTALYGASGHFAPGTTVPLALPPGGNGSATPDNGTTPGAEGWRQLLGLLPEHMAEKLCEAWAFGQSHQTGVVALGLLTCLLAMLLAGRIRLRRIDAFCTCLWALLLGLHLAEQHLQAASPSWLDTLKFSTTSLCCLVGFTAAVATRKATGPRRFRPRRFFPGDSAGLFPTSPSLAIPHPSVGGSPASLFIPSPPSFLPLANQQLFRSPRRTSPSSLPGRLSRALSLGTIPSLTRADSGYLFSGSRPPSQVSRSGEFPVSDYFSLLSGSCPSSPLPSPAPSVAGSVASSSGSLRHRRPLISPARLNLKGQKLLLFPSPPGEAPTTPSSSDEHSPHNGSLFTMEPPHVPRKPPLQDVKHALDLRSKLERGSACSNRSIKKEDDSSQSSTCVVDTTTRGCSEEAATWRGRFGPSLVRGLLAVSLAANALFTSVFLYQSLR
UniProt O00206, whole entry, looked up: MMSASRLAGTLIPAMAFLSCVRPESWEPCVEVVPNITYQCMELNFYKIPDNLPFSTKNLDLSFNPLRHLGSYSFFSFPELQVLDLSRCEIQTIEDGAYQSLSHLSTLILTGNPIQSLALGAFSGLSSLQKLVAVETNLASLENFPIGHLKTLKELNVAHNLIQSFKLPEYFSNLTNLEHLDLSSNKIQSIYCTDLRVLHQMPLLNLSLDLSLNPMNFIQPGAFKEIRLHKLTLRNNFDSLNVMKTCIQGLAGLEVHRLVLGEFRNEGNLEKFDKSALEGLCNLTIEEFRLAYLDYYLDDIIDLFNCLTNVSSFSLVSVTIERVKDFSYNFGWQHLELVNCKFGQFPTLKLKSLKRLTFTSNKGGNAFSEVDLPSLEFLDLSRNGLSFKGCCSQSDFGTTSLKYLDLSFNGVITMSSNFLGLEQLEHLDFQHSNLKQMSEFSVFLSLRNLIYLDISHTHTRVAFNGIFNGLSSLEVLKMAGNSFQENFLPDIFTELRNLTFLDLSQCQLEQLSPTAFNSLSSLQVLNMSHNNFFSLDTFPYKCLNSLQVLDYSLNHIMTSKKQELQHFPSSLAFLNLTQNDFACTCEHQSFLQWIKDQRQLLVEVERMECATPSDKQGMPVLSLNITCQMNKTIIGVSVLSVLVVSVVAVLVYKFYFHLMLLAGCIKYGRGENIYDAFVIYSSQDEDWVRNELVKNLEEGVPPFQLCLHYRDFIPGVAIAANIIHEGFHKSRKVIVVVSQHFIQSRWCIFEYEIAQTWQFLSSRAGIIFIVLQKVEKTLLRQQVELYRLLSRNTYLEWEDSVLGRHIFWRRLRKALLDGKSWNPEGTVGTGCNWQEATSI
UniProt Q5T292: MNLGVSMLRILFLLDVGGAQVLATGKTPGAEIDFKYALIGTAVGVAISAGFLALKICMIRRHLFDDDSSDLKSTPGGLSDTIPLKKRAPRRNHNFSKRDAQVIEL

Each target was assayed with C1CN(CCC1(CC2=CC=C(C=C2)Cl)N)C3=NC=NC4=C3C=CN4 (assay: log2 fold change, soluble protein after heating vs DMSO (PISA); higher = thermal stabilisation; K562 cells, 10 uM, 30 min; active = over 0.2 and 3.5 SD of the protein, either way, in both replicates (recomputed)).
In short: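 K562 cells at 2×10^6 cells/mL were treated with 10 μM compound for 30 min. Aliquots were heated for 3 min across 48°C-58°C, pooled, and extracted in PBS with 0.5% NP-40 at 4°C; soluble protein was the supernatant after 21,000xg for 90 min. Soluble protein was quantified by TMTpro 16plex LC-MS/MS with channel sums equalised, and reported as log2 fold change in thermal stability against DMSO controls, with values from duplicates.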

log2 fold change, inactive:
TMEM8A (UniProt Q9HCN3) 0.011, TNFAIP2 (UniProt Q03169) 0.14, TMEM184C (UniProt Q9NVA4) -0.059, TMEM59 (UniProt Q9BXS4) -0.096, TMEM237 isoform 3 (UniProt Q96Q45) 0.227, TMEM143 (UniProt Q96AN5) 0.161, TMEM184B (UniProt Q9Y519) -0.139, TMEM175 (UniProt Q9BSA9) -0.032, TMEM79 (UniProt Q9BSE2) 0.065, TMEM131 (UniProt Q92545) -0.12, TNFRSF1A (UniProt P19438) -0.111, TMEM35B (UniProt Q8NCS4) -0.04, TMEM129 0.015, TMEM159 isoform 2 (UniProt Q96B96) 0.016, TMEM127 (UniProt O75204) 0.133, TMEM260 (UniProt Q9NX78) 0.008, TMEM205 (UniProt Q6UW68) 0.014, TLNRD1 (UniProt Q9H1K6) -0.042, TMEM167B (UniProt Q9NRX6) 0.067, TMEM201 (UniProt Q5SNT2) 0.01, TMEM50A (UniProt O95807) 0.228, TLR4 (UniProt O00206) 0.079, TMEM273 isoform 2 (UniProt Q5T292) -0.14
